Measured values taken from PMC4321561 (Frontiers in Pharmacology, 2015).
Some peptides are written in HELM: one residue between dots, names in brackets for other building blocks, links after the first $.

Experiments:
[1] = general procedure: Boc solid-phase peptide synthesis; HCTU; conditions: UHPLC (Shimadzu), analytical C18
[2] = Fmoc solid-phase peptide synthesis; HCTU; conditions: whole synthesis, UHPLC (Shimadzu), analytical C18

Substance	final HPLC purity ([1]; conjugation step)	final HPLC purity ([1]; whole synthesis)	final HPLC purity [2]
PEPTIDE1{G.G.V.C.Y.G.R.R.A.R.R.R.C.R.R.D.S.D.C.P.G.A.C.I.C.K.G.N.G.Y.C.G.S.G.S.D}$PEPTIDE1,PEPTIDE1,1:R1-36:R2|PEPTIDE1,PEPTIDE1,4:R3-23:R3|PEPTIDE1,PEPTIDE1,13:R3-25:R3|PEPTIDE1,PEPTIDE1,19:R3-31:R3$$$V2.0	93.9%	99.4%	–
PEPTIDE1{Y.G.R.K.A.R.R.R.R.R.R}$$$$V2.0	99.0%	–	98.5%
PEPTIDE1{G.G.V.C.P.K.I.L.K.K.C.R.R.D.S.D.C.P.G.A.C.I.C.R.G.N.G.Y.C.G.S.G.S.D}$PEPTIDE1,PEPTIDE1,1:R1-34:R2|PEPTIDE1,PEPTIDE1,4:R3-21:R3|PEPTIDE1,PEPTIDE1,11:R3-23:R3|PEPTIDE1,PEPTIDE1,17:R3-29:R3$$$V2.0	95.9%	99.1%	–
PEPTIDE1{G.G.V.C.P.R.I.L.R.R.C.R.R.D.S.D.C.P.G.A.C.I.C.K.G.N.G.Y.C.G.S.G.S.D}$PEPTIDE1,PEPTIDE1,1:R1-34:R2|PEPTIDE1,PEPTIDE1,4:R3-21:R3|PEPTIDE1,PEPTIDE1,11:R3-23:R3|PEPTIDE1,PEPTIDE1,17:R3-29:R3$$$V2.0	96.0%	97.5%	–
NH2-YGRKKRRQRRRPPQG-COOH	99.2%	–	99.3%
